Experimental data as given in paper PMC11432330, “Novel Drug-like HsrA Inhibitors Exhibit Potent Narrow-Spectrum Antimicrobial Activities against Helicobacter pylori” (International Journal of Molecular Sciences, 2024).
Further values from the same series stand in other lists.

System: H. pylori 26695
Experiment: In vivo inhibition of HsrA: RNA-Seq transcriptomic analysis of exposed cells
Type: cell-based, Helicobacter pylori
Experimental: Bacterial growth from three blood agar plates of H. pylori ATCC 700392 (aka 26695) incubated for 48 h at 37 °C under microaerobic conditions was aseptically resuspended in BHI + FBS and adjusted to 10^7 CFU/mL. BHI broth cultures were incubated microaerobically at 37 °C for 24 h. […] At this time, bacterial growth was stopped by adding 1.5 mL ice-cold RNA stop solution (95% absolute ethanol, 5% acid-buffered phenol) and subsequently incubated on ice. Control samples were exposed to the same amount of DMSO instead of the inhibitor. Helicobacter cells from all samples were harvested by centrifugation (4000 rpm at 4 °C for 10 min), then the pellets were quickly frozen by immersion in liquid nitrogen and stored at −80 °C.
RNA-Seq analysis was performed by GENEWIZ (Azenta Life Sciences, Leipzig, Germany). Frozen cell pellets from two biological replicates of each treatment condition were properly submitted to GENEWIZ in dry ice. RNA-Seq libraries were prepared according to standard protocols via rRNA depletion, RNA fragmentation and random priming, reverse transcription, 5’-phosphorylation and dA-tailing of cDNAs, adaptor ligation, and PCR enrichment. Once the quality of each library was confirmed, they were sequenced on an Illumina NovaSeq 6000 (Illumina, San Diego, CA, USA) with 150-bp paired-ends. Raw sequence reads were filtered to remove possible adapter sequences and nucleotides with poor quality using Trimmomatic v.0.36 [105]. The trimmed reads were subsequently mapped to the H. pylori strain 26695 reference genome NC_000915.1 available on NCBI, by using the Bowtie2 aligner v.2.2.6 [106]. Unique gene hit counts were calculated by using featureCounts from the Subread package v.1.5.2. Only unique reads that fell within the gene regions were counted. Using DESeq2 [108], a comparison of the gene expression between the control and treated groups of samples was performed. The Wald test was used to generate p-values and log2 fold changes. Genes with an adjusted p-value < 0.05 and absolute log2 fold change >1 were considered as differentially expressed genes (DEGs) for each comparison. The RNA-Seq data generated in this study have been deposited in ArrayExpress with the accession number E-MTAB-14255.

NC(=NOC(=O)Nc1ccc(Cl)cc1)c1csc([N+](=O)[O-])c1 [Ligand V, N′-{[(4-chloroanilino)carbonyl]}oxy-5-nitrothiophene-3-carboximidamide]
log2 Fold Change (gene HP1498, exposed to lethal concentration of V vs control): -1.343 | log2 Fold Change (gene HP1502, exposed to lethal concentrations of V vs control): 0.636 | log2 Fold Change (gene HP1503, exposed to lethal concentrations of V vs control): 0.639 | log2 Fold Change (gene HP1506, exposed to lethal concentrations of V vs control): 0.739 | log2 Fold Change (gene HP1507, exposed to lethal concentrations of V vs control): 0.657 | log2 Fold Change (gene HP1508, exposed to lethal concentrations vs control): -0.031 | log2 Fold Change (gene HP1509, exposed to lethal concentrations vs control): 0.053 | log2 Fold Change (gene HP1511, exposed to lethal concentrations vs control): -0.819 | log2 Fold Change (gene HP1516, exposed to lethal concentrations of V vs control): 0.660 | log2 Fold Change (gene HP1517, exposed to lethal concentrations vs control): 1.065 | log2 Fold Change (gene HP1523, exposed to lethal concentrations of V vs control): 0.993 | log2 Fold Change (gene HP1524, exposed to lethal concentration of V vs control): -2.821 | log2 Fold Change (gene HP1525, exposed to lethal concentrations vs control): -0.713 | log2 Fold Change (gene HP1527, exposed to lethal concentrations of V vs control): 0.743 | log2 Fold Change (gene HP1530, exposed to lethal concentration of V vs control): -0.933 | log2 Fold Change (gene HP1531, exposed to lethal concentrations vs control): -0.859 | log2 Fold Change (gene HP1532, exposed to lethal concentrations vs control): 0.041 | log2 Fold Change (gene HP1534, exposed to lethal concentrations vs control): 0.066 | log2 Fold Change (gene HP1535, exposed to lethal concentrations vs control): 0.128 | log2 Fold Change (gene HP1541, exposed to lethal concentrations of V vs control): 0.721 | log2 Fold Change (gene HP1542, exposed to lethal concentrations vs control): -0.764 | log2 Fold Change (gene HP1543, exposed to lethal concentrations of V vs control): 0.617 | log2 Fold Change (gene HP1544, exposed to lethal concentration of V vs control): -0.949 | log2 Fold Change (gene HP1545, exposed to lethal concentration of V vs control): -1.535 | log2 Fold Change (gene HP1548, exposed to lethal concentrations vs control): 0.090 | log2 Fold Change (gene HP1553, exposed to lethal concentrations of V vs control): 0.791 | log2 Fold Change (gene HP1560, exposed to lethal concentrations of V vs control): 0.975 | log2 Fold Change (gene HP1561, exposed to lethal concentrations of V vs control): 0.716 | log2 Fold Change (gene HP1563, exposed to lethal concentrations of V vs control): 0.564 | log2 Fold Change (gene HP1565, exposed to lethal concentrations vs control): -0.029 | log2 Fold Change (gene HP1566, exposed to lethal concentration of V vs control): -1.368 | log2 Fold Change (gene HP1568, exposed to lethal concentrations vs control): -0.016 | log2 Fold Change (gene HP1570, exposed to lethal concentrations vs control): -0.103 | log2 Fold Change (gene HP1571, exposed to lethal concentrations vs control): -0.681 | log2 Fold Change (gene HP1575, exposed to lethal concentrations vs control): -0.053 | log2 Fold Change (gene HP1578, exposed to lethal concentration of V vs control): -1.307 | log2 Fold Change (gene HP1579, exposed to lethal concentration of V vs control): -1.547 | log2 Fold Change (gene HP1582, exposed to lethal concentrations of V vs control): 0.892 | log2 Fold Change (gene HP1588, exposed to lethal concentrations vs control): 1.118 | log2 Fold Change (gene HP1590, exposed to lethal concentration of V vs control): -1.429 | log2 Fold Change (gene HPrrnA5S, exposed to lethal concentrations vs control): 2.552 | log2 Fold Change (gene HPrrnA23S, exposed to lethal concentrations vs control): 3.014 | log2 Fold Change (gene HPrrnB5S, exposed to lethal concentrations vs control): 2.026 | log2 Fold Change (gene HPrrnB16S, exposed to lethal concentrations vs control): 3.934 | log2 Fold Change (gene HPrrnB23S, exposed to lethal concentrations vs control): 2.968 | log2 Fold Change (gene HPrrnC5S, exposed to lethal concentrations vs control): 2.584 | log2 Fold Change (gene ackA, exposed to lethal concentrations vs control): 0.076 | log2 Fold Change (gene acpP, exposed to lethal concentration of V vs control): -1.158 | log2 Fold Change (gene alaS, exposed to lethal concentrations of V vs control): 1.000 | log2 Fold Change (gene algC, exposed to lethal concentrations vs control): -0.743 | log2 Fold Change (gene amiE, exposed to lethal concentrations vs control): 1.692 | log2 Fold Change (gene amiF, exposed to lethal concentrations vs control): 1.404 | log2 Fold Change (gene argS, exposed to lethal concentrations vs control): -0.097 | log2 Fold Change (gene aroE, exposed to lethal concentrations vs control): -0.061 | log2 Fold Change (gene aroK, exposed to lethal concentrations vs control): -0.086 | log2 Fold Change (gene aspA, exposed to lethal concentrations vs control): 1.276 | log2 Fold Change (gene aspS, exposed to lethal concentrations vs control): -0.073 | log2 Fold Change (gene atpC, exposed to lethal concentrations vs control): 0.044 | log2 Fold Change (gene carB, exposed to lethal concentrations vs control): 0.067 | log2 Fold Change (gene clpP, exposed to lethal concentrations vs control): -0.759 | log2 Fold Change (gene coaD, exposed to lethal concentration of V vs control): -0.928 | log2 Fold Change (gene coaE, exposed to lethal concentrations vs control): 0.022 | log2 Fold Change (gene dapA, exposed to lethal concentrations vs control): -0.116 | log2 Fold Change (gene dapF, exposed to lethal concentrations vs control): 0.125 | log2 Fold Change (gene dcd, exposed to lethal concentrations vs control): 0.064 | log2 Fold Change (gene def, exposed to lethal concentrations vs control): -0.647 | log2 Fold Change (gene dnaE, exposed to lethal concentrations vs control): 1.669 | log2 Fold Change (gene dnaK, exposed to lethal concentrations vs control): 1.705 | log2 Fold Change (gene engA, exposed to lethal concentrations vs control): 0.104 | log2 Fold Change (gene engB, exposed to lethal concentrations vs control): -0.664 | log2 Fold Change (gene eno, exposed to lethal concentrations of V vs control): 0.634 | log2 Fold Change (gene era, exposed to lethal concentrations vs control): -0.691 | log2 Fold Change (gene fabG, exposed to lethal concentration of V vs control): -1.077 | log2 Fold Change (gene flgA, exposed to lethal concentrations vs control): -0.830 | log2 Fold Change (gene flgB, exposed to lethal concentrations of V vs control): 0.618 | log2 Fold Change (gene flgE, exposed to lethal concentrations of V vs control): 0.610 | log2 Fold Change (gene flgG, exposed to lethal concentrations vs control): -0.750 | log2 Fold Change (gene flgK, exposed to lethal concentrations of V vs control): 0.565 | log2 Fold Change (gene flgL, exposed to lethal concentrations vs control): -0.083 | log2 Fold Change (gene fliD, exposed to lethal concentrations vs control): 1.582 | log2 Fold Change (gene fliF, exposed to lethal concentration of V vs control): -0.921 | log2 Fold Change (gene fliH, exposed to lethal concentrations vs control): -0.699 | log2 Fold Change (gene fliI, exposed to lethal concentrations of V vs control): 0.528 | log2 Fold Change (gene fliL, exposed to lethal concentrations vs control): 0.078 | log2 Fold Change (gene fliS, exposed to lethal concentrations of V vs control): 0.939 | log2 Fold Change (gene fmt, exposed to lethal concentrations vs control): 0.084 | log2 Fold Change (gene frdB, exposed to lethal concentrations of V vs control): 0.586 | log2 Fold Change (gene fumC, exposed to lethal concentrations of V vs control): 0.878 | log2 Fold Change (gene gatA, exposed to lethal concentrations vs control): 1.031 | log2 Fold Change (gene gatB, exposed to lethal concentrations vs control): -0.066 | log2 Fold Change (gene gatC, exposed to lethal concentration of V vs control): -0.931 | log2 Fold Change (gene gidA, exposed to lethal concentrations of V vs control): 0.812 | log2 Fold Change (gene gidB, exposed to lethal concentration of V vs control): -1.735 | log2 Fold Change (gene glk, exposed to lethal concentrations vs control): 1.500 | log2 Fold Change (gene glmU, exposed to lethal concentrations of V vs control): 0.554 | log2 Fold Change (gene gltA, exposed to lethal concentrations of V vs control): 0.877 | log2 Fold Change (gene glyQ, exposed to lethal concentrations of V vs control): 0.861 | log2 Fold Change (gene glyS, exposed to lethal concentrations of V vs control): 0.969 | log2 Fold Change (gene gpsA, exposed to lethal concentrations of V vs control): 0.711 | log2 Fold Change (gene greA, exposed to lethal concentrations of V vs control): 1.007 | log2 Fold Change (gene groEL, exposed to lethal concentrations vs control): 1.455 | log2 Fold Change (gene hemA, exposed to lethal concentrations vs control): -0.784 | log2 Fold Change (gene hemD, exposed to lethal concentration of V vs control): -1.159 | log2 Fold Change (gene hemE, exposed to lethal concentrations vs control): -0.131 | log2 Fold Change (gene hemH, exposed to lethal concentrations vs control): -0.866 | log2 Fold Change (gene hisS, exposed to lethal concentrations of V vs control): 0.658 | log2 Fold Change (gene hslU, exposed to lethal concentrations vs control): 0.132 | log2 Fold Change (gene htpG, exposed to lethal concentrations vs control): 1.030 | log2 Fold Change (gene ileS, exposed to lethal concentrations of V vs control): 0.652 | log2 Fold Change (gene infA, exposed to lethal concentration of V vs control): -2.208 | log2 Fold Change (gene infC, exposed to lethal concentration of V vs control): -1.016 | log2 Fold Change (gene ispG, exposed to lethal concentrations of V vs control): 0.969 | log2 Fold Change (gene ispH, exposed to lethal concentrations of V vs control): 0.520 | log2 Fold Change (gene leuS, exposed to lethal concentrations of V vs control): 0.562 | log2 Fold Change (gene ligA, exposed to lethal concentrations of V vs control): 0.908 | log2 Fold Change (gene lpxC, exposed to lethal concentrations vs control): 1.015 | log2 Fold Change (gene lpxD, exposed to lethal concentrations vs control): 0.035 | log2 Fold Change (gene lspA, exposed to lethal concentrations vs control): 0.075 | log2 Fold Change (gene lysS, exposed to lethal concentration of V vs control): -1.055
